Measured values from US9175053B2 (BEN-GURION UNIVERSITY OF THE NEGEV RESEARCH AND DEVELOPMENT …, priority 2010, dated 2015).

Test: general procedure: Fmoc solid-phase peptide synthesis; Rink amide; HBTU/DIEA; HATU/DIEA for first amino acid (Gly)
Conditions: whole synthesis, TFA salts

## Cys-Ub(47-76)-N-methyl Cysteine
  isolated yield: 25-30%
